Laboratory results published in the supplement of paper PMC9744312.
Structures can show the parent of a compound that is named as a salt. The list shows a part of the results. The data scatter; read single values as rough.

tested on: Peyronie's disease tunica albuginea primary fibroblasts; test: cell viability (DRAQ5 nuclear stain) relative to TGF-beta1-only control; higher = more viable cells; details: 10 µM; TGF-beta1 10 ng/mL; 72 h

SMILES	cell viability
NC(=O)CN1CC(O)CC1=O (stereo not drawn) [Oxiracetam]	89.5%
C[CH2][Hg][S]c1ccccc1C(=O)[O-].[Na+] [Thimerosal]	16.5%
O=C(O[C@H]1C[C@H]2CC[C@@H](C1)[N+]21CCCC1)C(O)(c1ccccc1)c1ccccc1 [Trospium chloride]	88.4%
COc1ccc(C(=O)N2CCCC2=O)cc1 [Aniracetam]	52.1%
O=C(O)CCCc1ccc(N(CCCl)CCCl)cc1 [Chloroambucil]	73%
CC[C@@H](C(N)=O)N1CCCC1=O [Levetiracetam]	88.2%
CCC[C@@H]1CC(=O)N([C@@H](CC)C(N)=O)C1 [Brivaracetam]	93.5%
Nc1ccncc1 [4-Aminopyridine]	88.3%
Cc1ncc(CNC(=O)N(CCCl)N=O)c(N)n1 [Nimustine Hydrochloride]	90.4%
CCCN1C[C@H](CSC)C[C@@H]2c3cccc4[nH]cc(c34)C[C@H]21 [Pergolide Mesylate]	94.2%
CC(=O)OC1CN2CCC1CC2 (stereo not drawn) [Aceclidine HCl]	94.4%
C[N+](C)(C)CCCCCCCCCC[N+](C)(C)C [Decamethonium Bromide]	86.8%
CN1c2ccccc2C(NCCCCCCC(=O)O)c2ccc(Cl)cc2S1(=O)=O (stereo not drawn) [Tianeptine sodium]	96.5%
CN1c2ccccc2C(NCCCCCCC(=O)O)c2ccc(Cl)cc2S1(=O)=O (stereo not drawn) [Tianeptine]	89.2%
NCCc1cc(O)c(O)cc1O [Oxidopamine (hydrobromide)]	82.9%
Nc1nc(N)nc(NC2CC2)n1 [Cyromazine]	73.3%
O=[N+]([O-])O[C@@H]1CO[C@H]2[C@@H]1OC[C@@H]2O [Isosorbide Mononitrate]	78.7%
CCCCCCC(=O)O[C@H]1CC[C@H]2[C@@H]3CCC4=CC(=O)CC[C@]4(C)[C@H]3CC[C@]12C [Testosterone Enanthate]	89.9%
N[C@@H](Cc1ccc(N(CCCl)CCCl)cc1)C(=O)O [Melphalan]	85.3%
CC(C)N(CCC(C(N)=O)(c1ccccc1)c1ccccn1)C(C)C (stereo not drawn) [Disopyramide Phosphate]	84.8%
CC(C)N(CCC(C(N)=O)(c1ccccc1)c1ccccn1)C(C)C (stereo not drawn) [Disopyramide]	91.9%

Quoted at random: 2 entries already listed, in no set order.
SMILES	cell viability
CC(C)N(CCC(C(N)=O)(c1ccccc1)c1ccccn1)C(C)C (stereo not drawn) [Disopyramide]	91.9%
CC[C@@H](C(N)=O)N1CCCC1=O [Levetiracetam]	88.2%

Next part

SMILES	cell viability
N=C(N)NN [Aminoguanidine hydrochloride]	88.2%
COc1ccc(CN2CCNCC2)c(OC)c1OC [Trimetazidine dihydrochloride]	79.8%
CC[C@H]1CN2CC[C@H]1C[C@@H]2[C@@H](O)c1ccnc2ccc(OC)cc12 [Hydroquinidine]	98.6%
Cc1cc(O)ccc1Cl [Chlorocresol]	87.9%
O=c1[nH]c2ccccc2n1CCCN1CCC(n2c(=O)[nH]c3cc(Cl)ccc32)CC1 [Domperidone]	100%
C=CC[C@]1(O)CC[C@H]2[C@@H]3CCC4=CC(=O)CCC4=C3C=C[C@@]21C [Altrenogest]	96.2%
C/C(=C\c1csc(C)n1)[C@@H]1C[C@@H]2O[C@]2(C)CCC[C@H](C)[C@H](O)[C@@H](C)C(=O)C(C)(C)[C@@H](O)CC(=O)O1 [Patupilone (EPO906, Epothilone B)]	57.9%
Cc1ccccc1-n1c(CF)nc2ccc(N)cc2c1=O [Afloqualone]	84.4%
COc1ccc2c(c1)[C@]13CCCC[C@@H]1[C@H](C2)N(C)CC3 [Dextromethorphan hydrobromide hydrate]	72.5%
Cc1cccc(C(C)c2c[nH]cn2)c1C (stereo not drawn) [Medetomidine HCl]	86%
Cc1cccc(C)c1NC1=NCCCS1 [Xylazine HCl]	98%
COc1cc2c(cc1OC)C1CC(=O)C(CC(C)C)CN1CC2 (stereo not drawn) [Tetrabenazine (Xenazine)]	93.5%
CN1C(=O)COc2c(C(=O)NC3CN4CCC3CC4)cc(Cl)cc21 (stereo not drawn) [Azasetron HCl]	103%
Clc1ccc(C(OCCN2CCCCC2)c2ccccc2)cc1 (stereo not drawn) [Cloperastine hydrochloride]	78.8%
O=C(O[C@H]1C[N+]2(CCCOc3ccccc3)CCC1CC2)C(O)(c1cccs1)c1cccs1 [Aclidinium Bromide]	93.8%
NC(=O)CN1CCCC1=O [Piracetam]	90%
O=P1(NCCCl)OCCCN1CCCl (stereo not drawn) [Ifosfamide]	89.1%
Cc1cccc([C@H](C)c2c[nH]cn2)c1C [Dexmedetomidine HCl]	94.8%
Cc1cccc([C@H](C)c2c[nH]cn2)c1C [Dexmedetomidine]	84.1%
C#C[C@]1(O)C=C[C@H]2[C@@H]3CCC4=CC(=O)CC[C@@H]4[C@H]3CC[C@@]21CC [Gestodene]	88.1%
C[N+]12CCC(CC1)C(OC(=O)C(O)(c1ccccc1)c1ccccc1)C2 (stereo not drawn) [Clidinium Bromide]	88.9%

Exported in CSV form: entries from further up
SMILES,cell viability
C[CH2][Hg][S]c1ccccc1C(=O)[O-].[Na+] [Thimerosal],16.5%
COc1ccc(C(=O)N2CCCC2=O)cc1 [Aniracetam],52.1%
CC[C@@H](C(N)=O)N1CCCC1=O [Levetiracetam],88.2%
CCC[C@@H]1CC(=O)N([C@@H](CC)C(N)=O)C1 [Brivaracetam],93.5%
Nc1ccncc1 [4-Aminopyridine],88.3%
CC(=O)OC1CN2CCC1CC2 (stereo not drawn) [Aceclidine HCl],94.4%
C[N+](C)(C)CCCCCCCCCC[N+](C)(C)C [Decamethonium Bromide],86.8%
CN1c2ccccc2C(NCCCCCCC(=O)O)c2ccc(Cl)cc2S1(=O)=O (stereo not drawn) [Tianeptine sodium],96.5%
CCCCCCC(=O)O[C@H]1CC[C@H]2[C@@H]3CCC4=CC(=O)CC[C@]4(C)[C@H]3CC[C@]12C [Testosterone Enanthate],89.9%
N[C@@H](Cc1ccc(N(CCCl)CCCl)cc1)C(=O)O [Melphalan],85.3%
N=C(N)NN [Aminoguanidine hydrochloride],88.2%
CC[C@H]1CN2CC[C@H]1C[C@@H]2[C@@H](O)c1ccnc2ccc(OC)cc12 [Hydroquinidine],98.6%
O=c1[nH]c2ccccc2n1CCCN1CCC(n2c(=O)[nH]c3cc(Cl)ccc32)CC1 [Domperidone],100%
C=CC[C@]1(O)CC[C@H]2[C@@H]3CCC4=CC(=O)CCC4=C3C=C[C@@]21C [Altrenogest],96.2%
"C/C(=C\c1csc(C)n1)[C@@H]1C[C@@H]2O[C@]2(C)CCC[C@H](C)[C@H](O)[C@@H](C)C(=O)C(C)(C)[C@@H](O)CC(=O)O1 [Patupilone (EPO906, Epothilone B)]",57.9%
Cc1ccccc1-n1c(CF)nc2ccc(N)cc2c1=O [Afloqualone],84.4%
Cc1cccc(C(C)c2c[nH]cn2)c1C (stereo not drawn) [Medetomidine HCl],86%
Cc1cccc(C)c1NC1=NCCCS1 [Xylazine HCl],98%
CN1C(=O)COc2c(C(=O)NC3CN4CCC3CC4)cc(Cl)cc21 (stereo not drawn) [Azasetron HCl],103%
O=C(O[C@H]1C[N+]2(CCCOc3ccccc3)CCC1CC2)C(O)(c1cccs1)c1cccs1 [Aclidinium Bromide],93.8%
NC(=O)CN1CCCC1=O [Piracetam],90%
Cc1cccc([C@H](C)c2c[nH]cn2)c1C [Dexmedetomidine HCl],94.8%

Later entries.

SMILES	cell viability
NCCc1c[nH]c2ccc(O)cc12 [Serotonin HCl]	97.8%
CCC(COC(=O)c1cc(OC)c(OC)c(OC)c1)(c1ccccc1)N(C)C (stereo not drawn) [Trimebutine]	94.2%
CCNC1(c2cccs2)CCCCC1=O (stereo not drawn) [Tiletamine Hydrochloride]	95.7%
C[C@@H]1CC[C@H]2[C@@H](C)C(=O)O[C@@H]3O[C@@]4(C)CC[C@@H]1[C@]32OO4 [Artemisinin]	62.4%
CC[C@H]1[C@@H]2C[C@H]3[C@@H]4N(C)c5ccccc5[C@]45C[C@@H]([C@@H]2[C@H]5O)N3[C@@H]1O [Ajmaline]	91.3%
CCC1(c2cccc(O)c2)CCCCN(C)C1 (stereo not drawn) [Meptazinol HCl]	92.2%
COC(=O)C1=CCCN(C)C1 [Arecoline HBr]	76.7%
COc1cc2c(cc1OC)[C@@]13CCN4CC5=CCO[C@H]6CC(=O)N2[C@H]1[C@H]6[C@H]5C[C@H]43 [Brucine sulfate salt hydrate]	82.9%
CC(C)N(CCNC(=O)CN1CCCC1=O)C(C)C [Pramiracetam]	89.5%
CNCC(=O)c1ccc(O)c(O)c1 [Adrenalone HCl]	101%
C[C@]12CC[C@H]3[C@@H](CC[C@@]45O[C@@H]4C(O)=C(C#N)C[C@]35C)[C@@H]1CC[C@@H]2O [Trilostane]	92.6%
Oc1cc(Cl)ccc1Oc1ccc(Cl)cc1Cl [Triclosan]	91.8%
C[C@@H]1O[C@@H](O[C@H]2C[C@@H](O)[C@]3(CO)[C@H]4[C@H](O)C[C@]5(C)[C@@H](C6=CC(=O)OC6)CC[C@]5(O)[C@@H]4CC[C@]3(O)C2)[C@H](O)[C@H](O)[C@H]1O [Ouabain]	39.4%
NCC(O)c1ccc(O)cc1 (racemic) [(+,-)-Octopamine HCl]	94.9%
C[N+]1(C)[C@@H]2C[C@@H](OC(=O)[C@H](CO)c3ccccc3)C[C@H]1[C@@H]1O[C@@H]12 [Methscopolamine]	95%
CCC1(c2ccc(N)cc2)CCC(=O)NC1=O (stereo not drawn) [Aminoglutethimide]	95%
CCN(C)C(=O)Oc1cccc([C@H](C)N(C)C)c1 [Rivastigmine Tartrate]	93%
CCN(C)C(=O)Oc1cccc([C@H](C)N(C)C)c1 [Rivastigmine]	64.7%
OC(c1ccccc1)(c1ccccc1)C1CCNCC1 [Azacyclonol]	91.4%
C[N+]1(C)CCCC(OC(=O)C(O)(c2ccccc2)c2ccccc2)C1 (stereo not drawn) [Mepenzolate Bromide]	87.1%
CCC1(C)CC(=O)NC(=O)C1 [Bemegride]	98.9%

SMILES	cell viability
COc1ccc(CN(C(=O)[C@@H](N)Cc2c(C)cc(C(N)=O)cc2C)[C@@H](C)c2ncc(-c3ccccc3)[nH]2)cc1C(=O)O [Eluxadoline]	89.1%
Oc1ccc(Cl)cc1Cc1cc(Cl)ccc1O [Dichlorophene]	82.1%
C=CN1CCCC1=O.II [Povidone iodine]	82.2%
Cn1c(COP(=O)(NCCBr)NCCBr)cnc1[N+](=O)[O-] [Evofosfamide (TH-302)]	78.2%
CC(=O)NC1CCSC1=O (stereo not drawn) [Citiolone]	85.6%
O=P1(N(CCCl)CCCl)NCCCO1 (stereo not drawn) [Cyclophosphamide Monohydrate]	85.1%
CN1C(=O)CCS(=O)(=O)C1c1ccc(Cl)cc1 (stereo not drawn) [Chlormezanone]	95.6%
O.O.O.O=C([O-])C1[O][Sb]2[O]C(=O)C([O]2)C(C(=O)[O-])[O][Sb]2[O]C(=O)C1[O]2.[K+].[K+] (stereo not drawn) [Antimonyl potassium tartrate trihydrate]	98.1%
CCCCCCCCCCCCCCCC[n+]1ccccc1 [Cetylpyridinium Chloride]	45.9%
CNC(C)Cc1ccccc1OC (stereo not drawn) [Methoxyphenamine Hydrochloride]	90.2%
C=C1C[C@@H]2[C@H](CC[C@]3(C)C(=O)CC[C@@H]23)[C@@]2(C)C=CC(=O)C=C12 [Exemestane]	76.8%
CCN(CC)CCOC(=O)C(O)(c1ccccc1)c1ccccc1 [Benactyzine hydrochloride]	85.8%
CN(C)C(=O)Oc1cccc([N+](C)(C)C)c1 [Neostigmine Bromide]	92.5%
COc1ccc(C(CN(C)C)C2(O)CCCCC2)cc1 (stereo not drawn) [Venlafaxine HCl]	73.5%
COc1ccc(C(CN(C)C)C2(O)CCCCC2)cc1 (stereo not drawn) [Venlafaxine]	112%
C[C@]12CCC(=O)C(O)=C1CC[C@@H]1[C@@H]2CC[C@]2(C)C(=O)CC[C@@H]12 [Formestane]	96.7%
CCCCCCCCC(=O)NCc1ccc(O)c(OC)c1 [Nonivamide]	85.3%
NCCCNCCSP(=O)(O)O [Amifostine]	90.3%
CN(C)C(=O)Oc1ccc[n+](C)c1 [Pyridostigmine Bromide]	95.6%
O=c1[nH]c2ccccc2n1C1CCN(CCCC(c2ccc(F)cc2)c2ccc(F)cc2)CC1 [Pimozide]	92.2%
